For at least one entry, the source does not settle the construct or the ends of the probe. Negatives hold for the conditions tested. A weaker result is weaker than the reference pair of the same experiment. For some assays here: At least one verdict was read from the data and is not stated in words by the source.
Key:
MBP-His8-MilO [1] = assay: EMSA; conditions: EMSA: 20 mM Tris-HCl pH 8.0, 100 mM KCl, 2.5 mM MgCl2, 0.2 mM DTT, 10% glycerol, salmon sperm DNA, 30 C 10 min (Fig 5 legend: room temperature); recombinant protein; protein details: N-terminal MBP-His8; label: 5'-FAM on bottom strand
MBP-His8-MilO [2] = assay: fluorescence polarization; conditions: FP: 20 mM Tris pH 8.0, 50 mM KCl, 2.5 mM MgCl2, 0.2 mM DTT, 0.02 ug/uL salmon sperm DNA, 5% glycerol, 5 nM probe; recombinant protein; protein details: N-terminal MBP-His8; label: 5'-FAM on bottom strand

| Sequence | binding result (MBP-His8-MilO [1]) | binding result (MBP-His8-MilO [2]) |
| --- | --- | --- |
| CACTATTTAATCGTGTCGCTCGGTGGCGCCTATCAACGCCCCGG (double strand) [OBSM6] | binds more weakly | binds more weakly |
| CACTATTTAATCGTGTCGCTCGGTGGTGTCCGCCGGTGCCCCGG (double strand) [OBSM1] | binds more weakly | – |
| TGTCGCCCGGTCGTATTATCTAACGGCGCCTATCAACGCCCCGG (double strand) [OBSM5] | binds more weakly | binds more weakly |
| TGTCGCCCGGTCGTGTCGCTCGGTGGCGCCTATCAACGCCCCGG (double strand) [OBSM3] | binds more weakly | – |
| TGTCGCCCGGTCGTATTATCTAACGGTGTCCGCCGGTGCCCCGG (double strand) [OBSM2] | binds more weakly | – |
| CACTATTTAATCGTATTATCTAACGGCGCCTATCAACATCCCGG (double strand) [OBSM7] | no binding | no binding |
| CACTATTTAATCGTATTATCTAACGGTGTCCGCCGGTGCCCCGG (double strand) [OBSM4] | binds more weakly | binds more weakly |

— PMC11784345
